## Primary screen of a compound library

Measurements from “University of Dundee, Small-Polar-MMV Screening Library” (2021), ChEMBL document CHEMBL3988442.

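Phenotypic screen: M. tuberculosis growth, cholesterol and DPPC medium, 4 days; the read-out is not stated. Concentration: 50 µM. The record gives no direction; compounds that gave an IC50 in retests scored well above the rest, so higher reads as more growth inhibition. Size under these conditions: about 69,000 compounds, about 370 of them at 50% or above in at least one test.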

The filed quantity is “Percent Effect” (%).
How 0% and 100% were set is not recorded. Most values in the screen are low, and negative values occur.
Compounds were drawn at random from those tested, without regard to their results.
Two or more numbers in one place are separate tests of the same structure; such repeats can differ widely.

SMILES,percent effect
Cc1cnc(C(=O)N2CCC3(CCCN(c4nncs4)C3)C2)cn1 (stereo not shown),-2.922%
Cc1c(C(=O)N2CC(O)C2)nnn1-c1cccc2cnccc12,-7.893%
CSc1nccc(-c2cccc(-c3ccn(CC4COCCO4)n3)c2)n1 (stereo not shown),-14.89%
CCC(CO)N(Cc1cccnc1)C(=O)c1ccc(C(F)(F)F)nc1O (stereo not shown),9.516%
O=C(NCCc1ccn(-c2ccccc2)n1)N1CCCC(CO)C1 (stereo not shown),11.12%
CC(C)c1ocnc1C(=O)NC1(c2cccc(F)c2)CCOCC1,-10.63%
O=S(=O)(c1cccnc1)N1CCN(CCn2ccnc2)CC1,-4.679%
Cc1ccn2cc(C(=O)N3CCCC(Cn4cc(CO)nn4)C3)nc2c1 (stereo not shown),-10.56%
CCN(CC)C1CCN(C(=O)NCc2cccc(NC(C)=O)c2)C1 (stereo not shown),14.15%
CC(C)(C)c1ccc(S(=O)(=O)CCN2CCNC(=O)CC2)cc1,11.76%
[H][C@@]12CN(c3cc(OC)ncn3)C[C@@H](C(=O)NCCOC)[C@]1([H])CCO2,-0.1152%
N#Cc1cccc(CN2CCN(Cc3cscn3)CC2)c1,13.41%
COCC(=O)Nc1ccc(Oc2ccsc2C(=O)O)cc1,11.3%
O=C(c1ccsc1)N1CC(c2nc(-c3ccc[nH]c3=O)no2)C1,-23.74%
CCCc1cc(NC(=O)c2cccc(N3CCCNC3=O)c2)n[nH]1,9.318%
Cc1ccccc1S(=O)(=O)N(C)[C@@H]1CC[C@@H](n2ccnc2C)[C@@H]1O,-41.13% and 29.66%
Cc1ccc(F)c(OC2(C(=O)O)CCN(C(=O)c3ccccc3)CC2)c1,-1.128% and -11.1%
COc1ccccc1CN(Cc1nc(C)no1)C1CC1,-4.066%
O=C(c1ccc(Cl)cn1)N1CCC(COCc2ccccc2)C1 (stereo not shown),31.82%
CCc1nc2n(n1)CCCC2Nc1nc(C2CC2)ns1 (stereo not shown),10.79%
Cn1cc(C2CC3(CCN(C(=O)c4cccs4)CC3)NC2=O)cn1 (stereo not shown),-5.146% and -23.43%
CN(Cc1ccncc1)C(CO)c1cccc(Br)c1 (stereo not shown),-20.53%
COc1c(CNC(C)C(=O)NC2CCCC2)c(C(C)C)nn1C (stereo not shown),-19.39%
Cc1nc(CN2CCCC(CCc3ccc(F)c(F)c3)C2)c[nH]1 (stereo not shown),26.07%
COc1ccc(S(=O)(=O)NCc2cccnc2N(C)C)cc1F,-8.271%
CN(C)c1cnn(CC(=O)N2CCCCCC2)c(=O)c1,2.604%
Cc1ccc(C(CNC(=O)Nc2cn[nH]c2)N2CCOCC2)o1 (stereo not shown),9.269%
[H][C@@]12C[C@H](c3nnc(C)o3)O[C@@]1([H])CCN(C(=O)Cc1ccc(F)cc1)C2,-1.281%
CC(C)(C)c1cc(NC(=O)CN2CCCC2Cn2cccn2)on1 (stereo not shown),-3.962%
NC(=O)N1CCCC(C(=O)Nc2cccc(Cl)c2)C1 (stereo not shown),2.539%
Cc1cc(C(=O)N2CCC[C@]3(C[C@@H](OCC4CC4)CO3)C2)no1,8.902% and -5.878%
COc1ccc(N2CCC(NC(=O)c3sccc3C)CC2)cc1,-0.7076%
CC(C#N)CSc1ccccc1NCC(=O)NC1CCCCC1 (stereo not shown),26.15%
CC(C)C(=O)NCc1ccnc(Oc2ccc(F)cc2)c1,25%
O=C1CCc2cc(-c3csc(CCN4CCOC4=O)n3)c(F)cc2N1,-20.9%
Cc1ccc(NCc2ccc(C#N)cc2)cc1-n1cnnn1,-17.49%
CCC(C)(NCc1nnc(C(C)(C)C)o1)c1nccs1 (stereo not shown),4.782%
O=C(NCCn1ccnc1)NCC(c1ccco1)N1CCCC1 (stereo not shown),3.172%
CCCc1noc(CN2CCCC2c2c(C)nn(C)c2OC)n1 (stereo not shown),-26.9%
Cc1noc(CNc2ccccc2N2CCCCC2)n1,30.51% and 41.49%
CCn1c2c(ccc1=O)CC(N)CC2 (stereo not shown),-11.61%
CNC(=O)[C@@H]1C[C@@H](NC(=O)Cc2nonc2C)CN1Cc1sccc1C,6.624%
COc1cc(C)c(NC(=O)CCn2cccc2)cc1OC,-8.147%
Cc1cc(C)cc(CNC(C)c2c(C)nn(C)c2C)c1 (stereo not shown),-12.33% and -1.5%
O=C(O)C(F)(F)F.[H][C@@]12C[C@H](C(=O)N3CCCO3)CN(Cc3ccco3)[C@]1([H])CCO2,0.2169%
COCc1cccc(NC(C)C(=O)N(C)Cc2ccccc2)c1 (stereo not shown),21.21%
CCc1c(C)nc2ccccc2c1N1CCC(C(=O)NC)CC1,3.358% and 13.67%
Cc1nn(C)c(C)c1CN(Cc1cccn1-c1cccnc1)C(C)C,2.406%
Cc1ccoc1CNC(C)c1nnc2n1CCCC2 (stereo not shown),6.979%

4 of the entries, repeated:

SMILES	percent effect
Cc1c(C(=O)N2CC(O)C2)nnn1-c1cccc2cnccc12	-7.893%
Cc1noc(CNc2ccccc2N2CCCCC2)n1	30.51% and 41.49%
O=C(NCCn1ccnc1)NCC(c1ccco1)N1CCCC1 (stereo not shown)	3.172%
O=C1CCc2cc(-c3csc(CCN4CCOC4=O)n3)c(F)cc2N1	-20.9%